Paper PMC12543280
Changes are numbered by the printed parent chain. No constants are given. Whether binding was seen depends on the method and setting. For part of these data: Binding seen in cells or lysates may run through a third protein. Some binding calls cover weakened binding; strength is not graded here. Sequences can lack the tags named with a protein.

The chains behind the UniProt entries cited, without tags or fusion partners.
UniProt P62137: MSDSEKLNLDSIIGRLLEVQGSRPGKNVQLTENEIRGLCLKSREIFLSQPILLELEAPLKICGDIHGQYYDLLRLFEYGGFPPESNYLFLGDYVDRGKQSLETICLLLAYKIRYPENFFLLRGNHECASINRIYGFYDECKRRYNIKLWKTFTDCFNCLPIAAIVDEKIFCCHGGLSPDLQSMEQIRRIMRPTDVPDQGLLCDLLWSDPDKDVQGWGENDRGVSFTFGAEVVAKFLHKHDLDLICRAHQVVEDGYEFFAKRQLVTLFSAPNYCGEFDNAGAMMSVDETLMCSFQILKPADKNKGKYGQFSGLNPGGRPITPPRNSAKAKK

Key:
[1] = molecular target: T1, H. sapiens iASPP C-terminus, iASPP(602-828), fused to an HA tag and a HaloTag (human) (UniProt Q8WUF5); test: pull-down; HaloTag purification (HaloLink magnetic beads, release by TEV) from HEK293T cells cotransfected with HA-PP1 and HA- and HaloTagged iASPP C-terminus; quantitative HA blot of both
T1 sequence (chain, JFX549 dye on the HaloTag (fluorescent size exclusion chromatography only)): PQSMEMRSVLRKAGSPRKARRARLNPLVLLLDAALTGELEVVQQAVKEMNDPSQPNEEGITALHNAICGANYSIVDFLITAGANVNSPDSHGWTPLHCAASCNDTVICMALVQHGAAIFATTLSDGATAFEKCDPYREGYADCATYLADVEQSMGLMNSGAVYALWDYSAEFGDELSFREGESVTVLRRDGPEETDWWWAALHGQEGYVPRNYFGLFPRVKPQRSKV

[2] = molecular target: T2, H. sapiens iASPP C-terminus, iASPP(602-828, N657K), fused to an HA tag and a HaloTag (human) (UniProt Q8WUF5); test: as above
T2 sequence (chain, JFX549 dye on the HaloTag (fluorescent size exclusion chromatography only)): T1 sequence (chain, JFX549 dye on the HaloTag (fluorescent size exclusion chromatography only)) with N56K

[3] = molecular target: T3, H. sapiens iASPP C-terminus, iASPP(602-828, H665Y), fused to an HA tag and a HaloTag (human) (UniProt Q8WUF5); test: as above
T3 sequence (chain, JFX549 dye on the HaloTag (fluorescent size exclusion chromatography only)): T1 sequence (chain, JFX549 dye on the HaloTag (fluorescent size exclusion chromatography only)) with H64Y

[4] = molecular target: T1, H. sapiens iASPP C-terminus, iASPP(602-828), fused to an HA tag and a HaloTag (human); test: SEC; fluorescent size exclusion chromatography of lysates of cotransfected HEK293T cells; HaloTagged iASPP C-terminus labelled with JFX549; Superdex 200 Increase 10/300 GL, TBS, 4°C
[5] = molecular target: T2, H. sapiens iASPP C-terminus, iASPP(602-828, N657K), fused to an HA tag and a HaloTag (human); test: as above
[6] = molecular target: T3, H. sapiens iASPP C-terminus, iASPP(602-828, H665Y), fused to an HA tag and a HaloTag (human); test: as above

Measured: binding

PP1 (M. musculus PPP1CA) fused to an HA tag (from UniProt P62137 1-330) (enzyme)
binds: [1] | [2] | [3] | [4] | [5] | [6]
